From PubChem BioAssay AID1671190 (National Center for Advancing Translational Sciences (NCATS), 2021)
Hit rate of the full screen: of about 580,000 compounds, about 6,100 (1.1%) were called active. Inconclusive means that the source gave no clear call. Such entries were picked first, then a sample of the others. Calls follow the shape of the dose curve; as a rule, active = well fitted inhibition curve with a large enough effect; inconclusive = small, poorly fitted or top-dose-only effect, or another doubt; inactive = no such curve, though single readings can be large or run the other way. Potencies beside an inconclusive call are fits to weak or partial responses and may not hold up.

Amino acid sequences for entries named in this document (tags omitted). A change or cut given only in a name is not applied to a line headed by its entry.
UniProt P18054: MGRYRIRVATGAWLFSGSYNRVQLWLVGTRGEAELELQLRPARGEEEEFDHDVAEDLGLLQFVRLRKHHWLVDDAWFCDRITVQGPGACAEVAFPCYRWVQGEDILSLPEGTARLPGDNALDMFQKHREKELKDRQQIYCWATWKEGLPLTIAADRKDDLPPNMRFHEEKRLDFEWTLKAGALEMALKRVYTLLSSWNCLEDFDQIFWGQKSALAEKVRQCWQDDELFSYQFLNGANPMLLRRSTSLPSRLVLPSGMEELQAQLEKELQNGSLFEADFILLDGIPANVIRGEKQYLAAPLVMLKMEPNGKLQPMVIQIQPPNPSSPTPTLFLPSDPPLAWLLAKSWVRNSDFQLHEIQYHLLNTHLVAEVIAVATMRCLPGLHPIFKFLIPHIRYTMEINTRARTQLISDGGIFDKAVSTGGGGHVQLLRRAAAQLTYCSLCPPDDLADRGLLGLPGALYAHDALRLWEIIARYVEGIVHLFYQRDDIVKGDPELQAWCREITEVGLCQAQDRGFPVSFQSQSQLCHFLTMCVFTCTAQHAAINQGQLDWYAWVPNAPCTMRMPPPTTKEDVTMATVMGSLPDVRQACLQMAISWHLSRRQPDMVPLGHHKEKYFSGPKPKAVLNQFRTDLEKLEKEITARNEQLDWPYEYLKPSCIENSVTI

target: Polyunsaturated fatty acid lipoxygenase ALOX12 (Homo sapiens) (UniProt P18054); assay: Primary qHTS assay for inhibitors of human arachidonate 12S-lipoxygenase (ALOX12): Round 2; details: purified 12hLO, xylenol orange hydroperoxide absorbance; activity change, negative = inhibition: at 108 µM (top of the series) unless noted
Method in brief: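 Hydroperoxide product was detected by ferrous iron/xylenol orange as the 573 to 405 nm absorbance ratio. Arachidonic acid at 40 uM (final) was turned over for 30 min at room temperature by 150 nM human 12hLO, pH 7.0 Hepes buffer, after 15 min compound preincubation.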
% is scaled to controls: 0 for no effect and ±100 for the full control effect; potency is read from the fitted curve at half-maximal effect.

| Compound | Potency | activity change, negative = inhibition |
| --- | --- | --- |
| CCOc1cc(/C=C/C(=O)c2ccc(OCC(=O)O)c(OC)c2)cc(Cl)c1O | inconclusive: 50.1 µM [inhibitor, partial curve, poor fit] |  |
| CCOC(=O)Nc1ccc(NS(=O)(=O)c2ccccc2Br)cc1 | inconclusive: 22.4 µM [inhibitor, partial curve] |  |
| Cc1cccc(NC(=S)NCCc2ccccc2)c1 | inconclusive: 44.7 µM [inhibitor, partial curve, poor fit] |  |
| Cc1ccc(C(=O)O)cc1NC(=S)NC(=O)c1ccc(COc2ccccc2)cc1 | active: 2.82 µM |  |
| Nc1nc(Cl)cc(N2CCC(c3cc(-c4ccc(Cl)cc4Cl)n[nH]3)CC2)n1 |  | inactive: 0% |
| O=C(COc1ccc2oc3c(c2c1)CCCC3)OCC(=O)c1ccc2c(c1)OCO2 | inconclusive: 12.6 µM [inhibitor, full curve] |  |
| Cc1ccc(OCCCN2C(=O)C(=O)c3cccc(C)c32)cc1 | inconclusive: 44.7 µM [inhibitor, partial curve, poor fit] |  |
| CCOc1ccccc1CN1CCC2(CCN(Cc3ccsc3)CC2)Oc2ccccc21 | inconclusive: 56.2 µM [inhibitor, partial curve, poor fit] |  |
| O=C(Cn1ccn2nc(-c3ccccc3)c(CO)c2c1=O)NCc1ccc(F)cc1F | inconclusive: 25.1 µM [inhibitor, full curve, poor fit] |  |
| COc1ccc2c(CNCc3cccs3)c(C(=O)O)n(Cc3ccc(F)cc3Cl)c2c1 |  | inactive: -3.77% |
| Cc1ccc2c(C(=O)O)cc(-c3cccs3)nc2c1C | inconclusive: 44.7 µM [inhibitor, partial curve, poor fit] |  |
| CCOC(=O)c1c(NC(=O)c2ccccc2Br)sc2c1CCc1ccccc1-2 | inconclusive: 11.2 µM [inhibitor, full curve, poor fit] |  |
| CC(C)Cc1nnc(NC(=O)C2(c3cccc(F)c3)CCC2)s1 |  | inactive: 14.5% |
| Cc1ccccc1C1C(C#N)=C2N=C(N)c3c(sc4c3CCCCC4)N2C2=C1C(=O)CC(C)(C)C2 (centres undefined) |  | inactive: 41.7% |
| CC1=NN(c2ccc(C)cc2)C(=O)/C1=C\C=C\c1ccccc1 | inconclusive: 50.1 µM [inhibitor, partial curve, poor fit] |  |
| Cc1cc(=O)n2c(C(=O)Nc3ccc(F)c(Cl)c3)c(C(=O)Nc3cccc(C)c3C)sc2n1 |  | inconclusive: -48.1% [inhibitor] |
| CC(C)Oc1ccccc1/C=N/NC(=O)C1CC1 |  | inactive: 124% |
| Cc1ccc(NC(=O)C(Cc2ccccc2)n2cccc2)c(C)c1 (centres undefined) |  | inactive: -8.75% |
| OCC1CN(Cc2cscn2)CCC12CCN(Cc1ccccc1)CC2 (centres undefined) |  | inactive: 63.5% |

Another view of part of the listing above.
Compound | Potency | activity change, negative = inhibition
Cc1cccc(NC(=S)NCCc2ccccc2)c1 | inconclusive: 44.7 µM [inhibitor, partial curve, poor fit] | 
Cc1ccc(C(=O)O)cc1NC(=S)NC(=O)c1ccc(COc2ccccc2)cc1 | active: 2.82 µM | 
